Reference: article PMC5757147
These are yes or no findings as the source states them, for the method shown. In cells and extracts the contact can be indirect. Some results given as binding are weak or reduced against the parent protein; the word gives no strength.

Amino acid sequences for entries named in this document (tags omitted).
UniProt O35303: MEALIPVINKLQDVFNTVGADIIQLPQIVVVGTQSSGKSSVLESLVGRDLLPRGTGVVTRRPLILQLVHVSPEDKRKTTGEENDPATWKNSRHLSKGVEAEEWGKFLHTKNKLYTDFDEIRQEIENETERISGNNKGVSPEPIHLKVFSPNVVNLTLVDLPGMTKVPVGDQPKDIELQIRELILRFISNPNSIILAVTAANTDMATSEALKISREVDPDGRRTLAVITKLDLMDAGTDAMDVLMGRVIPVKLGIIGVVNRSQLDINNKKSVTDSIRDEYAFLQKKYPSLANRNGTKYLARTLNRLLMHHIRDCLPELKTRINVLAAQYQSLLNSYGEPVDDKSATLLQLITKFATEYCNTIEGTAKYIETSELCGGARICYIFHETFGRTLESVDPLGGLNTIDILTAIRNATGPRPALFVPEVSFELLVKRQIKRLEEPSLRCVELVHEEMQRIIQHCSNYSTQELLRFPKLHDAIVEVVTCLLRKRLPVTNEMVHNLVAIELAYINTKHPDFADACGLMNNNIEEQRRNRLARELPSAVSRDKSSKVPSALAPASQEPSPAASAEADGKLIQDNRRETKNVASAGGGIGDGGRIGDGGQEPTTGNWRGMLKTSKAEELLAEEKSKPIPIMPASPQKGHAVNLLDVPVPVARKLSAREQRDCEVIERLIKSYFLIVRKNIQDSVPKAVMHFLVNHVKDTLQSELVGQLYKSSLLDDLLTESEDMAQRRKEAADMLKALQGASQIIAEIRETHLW
UniProt P09215: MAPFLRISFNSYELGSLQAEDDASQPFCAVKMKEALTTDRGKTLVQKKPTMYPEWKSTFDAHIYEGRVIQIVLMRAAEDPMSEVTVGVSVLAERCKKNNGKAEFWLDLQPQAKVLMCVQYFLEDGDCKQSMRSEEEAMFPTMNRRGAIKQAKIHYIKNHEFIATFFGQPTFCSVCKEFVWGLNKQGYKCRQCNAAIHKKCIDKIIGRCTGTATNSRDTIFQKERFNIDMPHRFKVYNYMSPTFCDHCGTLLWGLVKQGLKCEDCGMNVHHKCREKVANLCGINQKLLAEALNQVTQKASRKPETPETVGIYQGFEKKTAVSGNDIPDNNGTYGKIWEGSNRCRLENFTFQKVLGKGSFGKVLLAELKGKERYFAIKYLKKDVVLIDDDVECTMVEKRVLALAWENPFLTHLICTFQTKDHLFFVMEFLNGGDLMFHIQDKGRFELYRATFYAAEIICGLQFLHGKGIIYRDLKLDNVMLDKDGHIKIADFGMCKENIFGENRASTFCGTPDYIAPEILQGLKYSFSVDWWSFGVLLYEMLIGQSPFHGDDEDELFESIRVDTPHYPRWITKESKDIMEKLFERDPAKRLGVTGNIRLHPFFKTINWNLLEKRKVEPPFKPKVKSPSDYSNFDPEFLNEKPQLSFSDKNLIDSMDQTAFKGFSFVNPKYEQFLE

Biological target: Dynamin-related protein 1 (rat (endogenous in primary cortical neurons)) (UniProt O35303)
Test: co-IP; mitochondrial or cytosolic fractions of primary cortical neurons incubated 4 h at 4°C with protein A/G PLUS agarose carrying 2 μg anti-PKCδ or anti-Drp1 antibody; blotted with anti-PKCδ and anti-Drp1; IgG as negative control; normal conditions, H2O2 (100 μM, 6 h), and pretreatment with YQFM (400 μg/ml), rottlerin (1 μM) or Mdivi-1 (25 μM)

## Protein kinase C-delta (from UniProt P09215 1-673) (enzyme)
  binding: binds
